Laboratory results as given in the supplement of paper PMC10373366.
Counter-ions that a name gives are not always drawn. This is one part of the list. Single values are uncertain, as repeats are few or missing.

Legend:
A2780 = assay: cell growth inhibition ratio vs untreated control (CCK8); higher = stronger inhibition of cell viability; conditions: 10 µM; 48 h
Method: (§1)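 Natural product library (Topscience) screened at 10 µM final concentration for 48 h on ovarian cancer A2780 cells and patient-derived ovarian cancer cells (PDC) in 96-well plates; viability read by CCK8 and reported as inhibition ratio (%) relative to untreated control. Single-dose primary screen.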

[1] = test system: patient-derived ovarian cancer cells (PDC); assay: as above; conditions: 10 µM; 48 h
Method: as §1

CC1=CC(=O)CC(C)(C)C1=O [Ketoisophorone]
cell growth inhibition ratio (A2780): 7.92%
cell growth inhibition ratio [1]: 4.88%

CC[C@H](/C=C/[C@@H](C)[C@H]1CC[C@H]2[C@@H]3CC=C4C[C@@H](O)CC[C@]4(C)[C@H]3CC[C@]12C)C(C)C [Stigmasterol]
cell growth inhibition ratio (A2780): 3.22%
cell growth inhibition ratio [1]: -7.76%

COc1cc2ccc(=O)oc2c(O)c1O [Fraxetin]
cell growth inhibition ratio (A2780): -6.34%
cell growth inhibition ratio [1]: -43.4%

Nc1ccccc1C(=O)CC(N)C(=O)O (stereo unspecified) [Kynurenine]
cell growth inhibition ratio (A2780): 1.58%
cell growth inhibition ratio [1]: -7.19%

COc1cc2oc(=O)ccc2cc1O
cell growth inhibition ratio (A2780): 8.25%
cell growth inhibition ratio [1]: 0.237%

CC(C)(S)[C@@H](N)C(=O)O [Artamine]
cell growth inhibition ratio (A2780): -2.58%
cell growth inhibition ratio [1]: 12.6%

c1coc(CNc2ncnc3[nH]cnc23)c1 [Kinetin]
cell growth inhibition ratio (A2780): 2.22%
cell growth inhibition ratio [1]: -1.35%

CC(C)=CCC[C@](C)(O[C@@H]1O[C@H](CO)[C@@H](O)[C@H](O)[C@H]1O)[C@H]1CC[C@]2(C)[C@@H]1[C@H](O)C[C@@H]1[C@@]3(C)CC[C@H](O)C(C)(C)[C@@H]3[C@@H](O[C@@H]3O[C@H](CO)[C@@H](O)[C@H](O)[C@H]3O[C@@H]3OC[C@@H](O)[C@H](O)[C@H]3O)C[C@]12C [Notoginsenoside R1]
cell growth inhibition ratio (A2780): 1.52%
cell growth inhibition ratio [1]: 7.55%

O=c1cc(-c2ccccc2)oc2ccc(O)cc12 [6-Hydroxyflavone]
cell growth inhibition ratio (A2780): -5.23%
cell growth inhibition ratio [1]: -20%

COc1cc(C(=O)O)cc(OC)c1O [Syringic acid]
cell growth inhibition ratio (A2780): -12.4%
cell growth inhibition ratio [1]: 5.84%

O=C(/C=C/c1ccc(O)cc1)c1ccc(O)cc1O [Isoliquiritigenin]
cell growth inhibition ratio (A2780): -45.9%
cell growth inhibition ratio [1]: -11.1%

O=C(/C=C/c1ccc(O)c(O)c1)O[C@@H]1C[C@](O)(C(=O)O)C[C@@H](O)[C@H]1O [Chlorogenic Acid]
cell growth inhibition ratio (A2780): 7%
cell growth inhibition ratio [1]: -4.05%

O=C(CCc1ccc(O)cc1)c1c(O)cc(O)cc1O[C@@H]1O[C@H](CO)[C@@H](O)[C@H](O)[C@H]1O [Phlorizin]
cell growth inhibition ratio (A2780): 6.3%
cell growth inhibition ratio [1]: 7.37%

COc1cc(C(=S)N2CCOCC2)ccc1O [Vanitiolide]
cell growth inhibition ratio (A2780): 5.4%
cell growth inhibition ratio [1]: 1.12%

O=C(O)c1ccc(O)c(O)c1 [Protocatechuic acid]
cell growth inhibition ratio (A2780): 4.08%
cell growth inhibition ratio [1]: 6.63%

CC[C@H](C)[C@H](N)C(=O)O [isoleucine]
cell growth inhibition ratio (A2780): 7.68%
cell growth inhibition ratio [1]: -1.82%

C=C1CC[C@@H]2[C@](C)(COC(=O)CCC(=O)O)[C@H](OC(=O)CCC(=O)O)CC[C@@]2(C)[C@@H]1/C=C/C1=CCOC1=O [Dehydroandrographolide Succinate Potasium Salt]
cell growth inhibition ratio (A2780): 12.8%
cell growth inhibition ratio [1]: 9.48%

CC(=O)OCC(=O)[C@@]1(O)CC[C@H]2[C@@H]3CCC4=CC(=O)C=C[C@]4(C)[C@@]3(Cl)[C@@H](Cl)C[C@@]21C [Dichlorisone Acetate]
cell growth inhibition ratio (A2780): 9.74%
cell growth inhibition ratio [1]: 4.41%

NCCCS(=O)(=O)O [Homotaurine]
cell growth inhibition ratio (A2780): 10.5%
cell growth inhibition ratio [1]: -6.2%

C[C@H]1O[C@@H](O[C@H]2[C@@H](O)C[C@H](O[C@H]3[C@@H](O)C[C@H](O[C@H]4CC[C@@]5(C)[C@H](CC[C@@H]6[C@@H]5C[C@@H](O)[C@]5(C)[C@@H](C7=CC(=O)OC7)CC[C@]65O)C4)O[C@@H]3C)O[C@@H]2C)C[C@H](O)[C@@H]1O [Digoxin]
cell growth inhibition ratio (A2780): 85.4%
cell growth inhibition ratio [1]: 66%

COc1cc(C2Oc3ccc(C4Oc5cc(O)cc(O)c5C(=O)C4O)cc3OC2CO)ccc1O (stereo unspecified) [Isosilybin]
cell growth inhibition ratio (A2780): 13.3%
cell growth inhibition ratio [1]: -0.257%

Oc1cc(O)c2c(c1)OC(c1ccc(O)c(O)c1)C(OC1(c3ccc(O)c(O)c3)Oc3cc(O)cc(O)c3C(O)C1O)C2 (stereo unspecified) [Proanthocyanidins]
cell growth inhibition ratio (A2780): 5.29%
cell growth inhibition ratio [1]: -2.08%

COc1cc(CCC(=O)CC(=O)CCc2ccc(O)c(OC)c2)ccc1O [Tetrahydro Curcumin]
cell growth inhibition ratio (A2780): 16.5%
cell growth inhibition ratio [1]: -2.35%

O=C(O)/C=C/c1ccccc1 [Cinnamic acid]
cell growth inhibition ratio (A2780): 9.12%
cell growth inhibition ratio [1]: 11%

COc1c2c(cc3oc(CO)cc(=O)c13)O[C@H](C(C)(C)O)C2 [Cimifugin]
cell growth inhibition ratio (A2780): 12.3%
cell growth inhibition ratio [1]: -10.7%

C[N+](C)(C)CC(=O)O [Betaine hydrochloride]
cell growth inhibition ratio (A2780): 18.9%
cell growth inhibition ratio [1]: -7.89%

COc1ccc([C@@H]2CC(=O)c3c(O)cc(O[C@@H]4O[C@H](CO[C@@H]5O[C@@H](C)[C@H](O)[C@@H](O)[C@H]5O)[C@@H](O)[C@H](O)[C@H]4O)cc3O2)cc1O [Hesperidin]
cell growth inhibition ratio (A2780): -7.94%
cell growth inhibition ratio [1]: 6.47%

O=c1c(-c2ccc(O[C@@H]3O[C@H](CO)[C@@H](O)[C@H](O)[C@H]3O)cc2)coc2cc(O)cc(O)c12 [Sophoricoside]
cell growth inhibition ratio (A2780): 4.16%
cell growth inhibition ratio [1]: 4.77%

OC[C@H]1OC(O)[C@H](O)[C@@H](O)[C@@H]1O (stereo partly drawn) [D(+)-Glucose]
cell growth inhibition ratio (A2780): 1.59%
cell growth inhibition ratio [1]: -6.01%

COc1ccc(CCC(=O)c2c(O)cc(O[C@@H]3O[C@H](CO)[C@@H](O)[C@H](O)[C@H]3O[C@@H]3O[C@@H](C)[C@H](O)[C@@H](O)[C@H]3O)cc2O)cc1O [Neohesperidin Dihydrochalcone (Nhdc)]
cell growth inhibition ratio (A2780): 9.23%
cell growth inhibition ratio [1]: -7.74%

CC1(C)[C@@H](O)CC[C@]2(C)[C@H]3C(=O)C=C4[C@@H]5C[C@@](C)(C(=O)O)CC[C@]5(C)CC[C@@]4(C)[C@]3(C)CC[C@@H]12 [Enoxolone]
cell growth inhibition ratio (A2780): 11.8%
cell growth inhibition ratio [1]: -1.1%

CCCCCCCCCCCCCCCC(=O)O [Palmitic acid]
cell growth inhibition ratio (A2780): 12.5%
cell growth inhibition ratio [1]: 0.93%

O=C(/C=C/c1ccc(O)c2c1[C@H](C(=O)O)[C@@H](c1ccc(O)c(O)c1)O2)O[C@H](Cc1ccc(O)c(O)c1)C(=O)O [lithospermic acid]
cell growth inhibition ratio (A2780): 7.44%
cell growth inhibition ratio [1]: -9.46%

CCCCCC=CCC=CCCCCCCCC(=O)OC(COC(=O)CCCCCCCCCCCCCCC)COP(=O)([O-])OCC[N+](C)(C)C [L-α-Phosphatidylcholine]
cell growth inhibition ratio (A2780): 6.62%
cell growth inhibition ratio [1]: 9.51%

O=c1c(O[C@@H]2O[C@H](CO)[C@H](O)[C@H](O)[C@H]2O)c(-c2ccc(O)c(O)c2)oc2cc(O)cc(O)c12 [Hyperoside]
cell growth inhibition ratio (A2780): -1.4%
cell growth inhibition ratio [1]: -0.488%

O=c1c2ccccc2nc2n1CCc1c-2[nH]c2ccccc12 [Rutaecarpine]
cell growth inhibition ratio (A2780): 12.9%
cell growth inhibition ratio [1]: 18.4%

CC[C@]1(O)C[C@H]2CN(CCc3c([nH]c4ccccc34)[C@@](C(=O)OC)(c3cc4c(cc3OC)N(C=O)[C@H]3[C@@](O)(C(=O)OC)[C@H](OC(C)=O)[C@]5(CC)C=CCN6CC[C@]43[C@@H]65)C2)C1 [Vincristine sulfate]
cell growth inhibition ratio (A2780): 88.1%
cell growth inhibition ratio [1]: 45.5%

CC(=O)[C@@]1(O)CC[C@H]2[C@@H]3CCC4=CC(=O)CC[C@]4(C)[C@H]3CC[C@@]21C [Hydroxyprogesterone]
cell growth inhibition ratio (A2780): 10.6%
cell growth inhibition ratio [1]: -12.8%

O=c1oc2ccccc2c(O)c1Cc1c(O)c2ccccc2oc1=O [Dicumarol]
cell growth inhibition ratio (A2780): 35.3%
cell growth inhibition ratio [1]: -2.44%

CC(C)=CCC[C@](C)(O[C@@H]1O[C@H](CO)[C@@H](O)[C@H](O)[C@H]1O)[C@H]1CC[C@]2(C)[C@@H]1[C@H](O)C[C@@H]1[C@@]3(C)CC[C@H](O)C(C)(C)[C@@H]3[C@@H](O)C[C@]12C [Ginsenoside F1]
cell growth inhibition ratio (A2780): 20.2%
cell growth inhibition ratio [1]: 5.53%

COc1cc2ccc(=O)oc2cc1OC [Scoparone]
cell growth inhibition ratio (A2780): -1.5%
cell growth inhibition ratio [1]: -12.2%

O=C1c2c(O)cccc2C([C@@H]2O[C@H](CO)[C@@H](O)[C@H](O)[C@H]2O)c2cc(CO)cc(O)c21 (stereo partly specified) [Aloin]
cell growth inhibition ratio (A2780): 5.67%
cell growth inhibition ratio [1]: -3.59%

C[C@H](CC[C@@H](O[C@@H]1O[C@H](CO[C@@H]2O[C@H](CO)[C@@H](O)[C@H](O)[C@H]2O)[C@@H](O)[C@H](O)[C@H]1O[C@@H]1O[C@H](CO)[C@@H](O)[C@H](O)[C@H]1O)C(C)(C)O)[C@H]1CC[C@@]2(C)[C@@H]3CC=C4[C@@H](CC[C@H](O[C@@H]5O[C@H](CO[C@@H]6O[C@H](CO)[C@@H](O)[C@H](O)[C@H]6O)[C@@H](O)[C@H](O)[C@H]5O)C4(C)C)[C@]3(C)[C@H](O)C[C@]12C [Mogroside V]
cell growth inhibition ratio (A2780): -3.99%
cell growth inhibition ratio [1]: 17.4%

C[C@@H]1O[C@@H](O[C@H]2[C@H](Oc3cc(O)c4c(=O)cc(-c5ccc(O)cc5)oc4c3)O[C@H](CO)[C@@H](O)[C@@H]2O)[C@H](O)[C@H](O)[C@H]1O [Rhoifolin]
cell growth inhibition ratio (A2780): -4.75%
cell growth inhibition ratio [1]: -0.348%

CCCCCCCCC[C@H](O)CC(=O)CCc1ccc(O)c(OC)c1 [10-Gingerol]
cell growth inhibition ratio (A2780): 22.4%
cell growth inhibition ratio [1]: -11.9%

O[C@H]1[C@H]2c3cc4c(cc3CN3CCC(=C[C@@H]1O)[C@H]23)OCO4 [Lycorine]
cell growth inhibition ratio (A2780): 77.3%
cell growth inhibition ratio [1]: 69.8%

CO[C@H]1C[C@@H]2CC[C@@H](C)[C@@](O)(O2)C(=O)C(=O)N2CCCC[C@H]2C(=O)O[C@H]([C@H](C)C[C@@H]2CC[C@@H](O)[C@H](OC)C2)CC(=O)[C@H](C)/C=C(\C)[C@@H](O)[C@@H](OC)C(=O)[C@H](C)C[C@H](C)/C=C/C=C/C=C/1C [Rapamycin (Sirolimus)]
cell growth inhibition ratio (A2780): 60.4%
cell growth inhibition ratio [1]: 21.9%

NC[C@@H]1O[C@H](O[C@H]2[C@@H](O)[C@H](O[C@@H]3[C@@H](O)[C@H](N)C[C@H](N)[C@H]3O[C@H]3O[C@H](CO)[C@@H](O)[C@H](O)[C@H]3N)O[C@@H]2CO)[C@H](N)[C@@H](O)[C@@H]1O [Paromomycin Sulfate]
cell growth inhibition ratio (A2780): 3.8%
cell growth inhibition ratio [1]: 12.7%

C[C@H](O)[C@H](O)[C@@H](O)[C@@H](O)C=O [L-Rhamnose monohydrate]
cell growth inhibition ratio (A2780): 2.37%
cell growth inhibition ratio [1]: 0.83%

CC(C)=CCC/C(C)=C/C=O [Citral]
cell growth inhibition ratio (A2780): 4.4%
cell growth inhibition ratio [1]: 5.45%

Cc1c(S(=O)(=O)O)oc2c1C(=O)C(=O)c1c-2ccc2c1CCCC2(C)C [Tanshinone IIA-sulfonic sodium]
cell growth inhibition ratio (A2780): 25.6%
cell growth inhibition ratio [1]: 0.863%

O=c1cc(-c2ccccc2)oc2c(O)c(O)ccc12 [7,8-Dihydroxyflavone]
cell growth inhibition ratio (A2780): -3.13%
cell growth inhibition ratio [1]: 9.29%

C=C1CC[C@@H]2[C@](C)(CO[C@@H]3O[C@H](CO)[C@@H](O)[C@H](O)[C@H]3O)CCC[C@@]2(C)[C@@H]1CCC1=CCOC1=O [Neoandrographolide]
cell growth inhibition ratio (A2780): 4.63%
cell growth inhibition ratio [1]: 2.7%
